Laboratory results reported in article doi:10.1101/2022.02.08.479616.
No constants are given. Whether binding was seen depends on the method and setting. For some assays here: In cells and extracts the contact can be indirect. Sequences can lack the tags named with a protein.

Protein sequences, listed by entry. Tags and fused reporters are not part of them. Lines headed by an entry give the natural chain unless they say otherwise; changes in a name come on top. Residues count along the entry.
UniProt Q9SJE1, residues 50-760: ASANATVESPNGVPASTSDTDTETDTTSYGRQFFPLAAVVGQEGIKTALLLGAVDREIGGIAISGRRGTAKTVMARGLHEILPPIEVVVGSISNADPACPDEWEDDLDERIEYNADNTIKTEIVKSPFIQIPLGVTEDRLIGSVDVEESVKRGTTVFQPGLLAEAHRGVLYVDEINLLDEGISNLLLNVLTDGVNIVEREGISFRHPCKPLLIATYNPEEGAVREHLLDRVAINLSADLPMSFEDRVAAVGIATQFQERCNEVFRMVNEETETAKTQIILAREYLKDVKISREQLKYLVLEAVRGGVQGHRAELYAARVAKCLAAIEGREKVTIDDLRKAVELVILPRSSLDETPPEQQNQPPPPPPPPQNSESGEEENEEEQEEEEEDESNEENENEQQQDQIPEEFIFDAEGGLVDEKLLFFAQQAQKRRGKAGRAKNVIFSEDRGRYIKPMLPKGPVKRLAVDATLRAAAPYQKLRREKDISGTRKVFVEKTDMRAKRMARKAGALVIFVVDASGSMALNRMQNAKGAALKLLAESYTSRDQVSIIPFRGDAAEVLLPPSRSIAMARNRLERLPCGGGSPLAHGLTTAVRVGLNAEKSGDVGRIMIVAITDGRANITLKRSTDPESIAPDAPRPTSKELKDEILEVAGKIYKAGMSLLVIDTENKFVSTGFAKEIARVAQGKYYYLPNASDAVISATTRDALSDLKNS

Columns and labels:
[1] = molecular target: T1, ORANGE (OR), split-YFP fusion for BiFC (Arabidopsis thaliana) (UniProt Q9FKF4); experiment: split reporter
T1 sequence: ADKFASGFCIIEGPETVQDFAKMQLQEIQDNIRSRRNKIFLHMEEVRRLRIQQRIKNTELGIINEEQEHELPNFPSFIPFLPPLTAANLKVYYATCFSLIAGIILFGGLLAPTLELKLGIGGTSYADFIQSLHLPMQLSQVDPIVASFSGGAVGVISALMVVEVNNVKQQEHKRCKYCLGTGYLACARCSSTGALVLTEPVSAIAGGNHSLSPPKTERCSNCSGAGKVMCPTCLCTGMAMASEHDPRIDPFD

[2] = molecular target: T2, OR-Like (ORL), split-YFP fusion for BiFC (Arabidopsis thaliana) (UniProt Q8VYD8); experiment: split reporter
T2 sequence: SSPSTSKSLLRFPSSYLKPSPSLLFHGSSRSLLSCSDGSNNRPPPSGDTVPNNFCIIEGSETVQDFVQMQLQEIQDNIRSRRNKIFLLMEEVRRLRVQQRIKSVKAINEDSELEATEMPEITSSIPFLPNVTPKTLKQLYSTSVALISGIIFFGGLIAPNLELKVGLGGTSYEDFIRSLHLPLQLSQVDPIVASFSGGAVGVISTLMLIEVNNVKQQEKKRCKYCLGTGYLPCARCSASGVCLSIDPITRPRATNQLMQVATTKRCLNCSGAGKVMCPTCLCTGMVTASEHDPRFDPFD

[3] = molecular target: T3, ORANGE (OR), Cub fusion for split-ubiquitin Y2H (Arabidopsis thaliana) (UniProt Q9FKF4); experiment: two-hybrid
T3 sequence: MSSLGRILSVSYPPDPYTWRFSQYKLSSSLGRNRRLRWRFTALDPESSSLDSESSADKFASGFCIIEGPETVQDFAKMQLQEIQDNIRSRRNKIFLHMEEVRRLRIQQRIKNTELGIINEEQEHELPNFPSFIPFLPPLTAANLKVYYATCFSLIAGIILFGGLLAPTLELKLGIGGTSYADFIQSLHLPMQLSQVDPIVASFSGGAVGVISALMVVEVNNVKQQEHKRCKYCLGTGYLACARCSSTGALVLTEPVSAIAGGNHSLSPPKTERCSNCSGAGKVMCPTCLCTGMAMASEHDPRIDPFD

[4] = molecular target: T4, OR-Like (ORL), Cub fusion for split-ubiquitin Y2H (Arabidopsis thaliana) (UniProt Q8VYD8); experiment: two-hybrid
T4 sequence: T2 sequence

Mg-chelatase subunit CHLD, split-YFP fusion for BiFC (from UniProt Q9SJE1 50-760)
binding [1]: no binding
binding [2]: no binding

Mg-chelatase subunit CHLD, Nub fusion for split-ubiquitin Y2H (from UniProt Q9SJE1 50-760)
binding [3]: no binding
binding [4]: no binding

B1: MgProtoIX methyltransferase (CHLM), Nub fusion for split-ubiquitin Y2H (protein, UniProt Q9SW18 40-312)
chain: AASVTDLAGVDSTTIAVLGGGSVAALAAMVSLTDPERRRKLQAEEVGGGDKEVVREYFNSTGFERWRKIYGETDEVNRVQKDIRLGHAKTVENTMLMLTEDRSLAGVTVCDAGCGTGLLSIPLAKEGAIVSASDISAAMVAEAEMKAKAQLPSENLPKFEVNDLESLTGKYDTVVCLDVLIHYPQNKADGMIAHLASLAEKRVILSFAPKTFYYDILKRIGELFPGPSKATRAYLHSEADVERALGKVGWKISKRGLTTTQFYFSRLIEAVPM
binding [3]: no binding
binding [4]: no binding

B2: MgPMME cyclase 1 (CRD1), Nub fusion for split-ubiquitin Y2H (protein, UniProt Q9M591 37-409)
chain: MSASSSPPPPTTATSKSKKGTKKEIQESLLTPRFYTTDFEEMEQLFNTEINKNLNEAEFEALLQEFKTDYNQTHFVRNKEFKEAADKLQGPLRQIFVEFLERSCTAEFSGFLLYKELGRRLKKTNPVVAEIFSLMSRDEARHAGFLNKGLSDFNLALDLGFLTKARKYTFFKPKFIFYATYLSEKIGYWRYITIYRHLKENPEFQCYPIFKYFENWCQDENRHGDFFSALMKAQPQFLNDWQAKLWSRFFCLSVYVTMYLNDCQRTNFYEGIGLNTKEFDMHVIIETNRTTARIFPAVLDVENPEFKRKLDRMVVSYEKLLAIGETDDASFIKTLKRIPLVTSLASEILAAYLMPPVESGSVDFAEFEPNLVY
binding [3]: no binding
binding [4]: no binding

B3: Pchlide oxidoreductase B (PORB), Nub fusion for split-ubiquitin Y2H (protein, UniProt P21218 67-401)
chain: QTAATSSPTVTKSVDGKKTLRKGNVVVTGASSGLGLATAKALAETGKWNVIMACRDFLKAERAAKSVGMPKDSYTVMHLDLASLDSVRQFVDNFRRTETPLDVLVCNAAVYFPTAKEPTYSAEGFELSVATNHLGHFLLARLLLDDLKKSDYPSKRLIIVGSITGNTNTLAGNVPPKANLGDLRGLAGGLNGLNSSAMIDGGDFDGAKAYKDSKVCNMLTMQEFHRRFHEETGVTFASLYPGCIASTGLFREHIPLFRALFPPFQKYITKGYVSETESGKRLAQVVSDPSLTKSGVYWSWNNASASFENQLSEEASDVEKARKVWEISEKLVGLA
binding [3]: no binding
binding [4]: no binding

B4: Mg-chelatase catalytic subunit CHLH (GENOMES UNCOUPLED 5), split-YFP fusion for BiFC (protein, UniProt Q9FNB0 50-1381)
chain: AVSGNGLFTQTNPEVRRIVPIKRDNVPTVKIVYVVLEAQYQSSLSEAVQSLNKTSRFASYEVVGYLVEELRDKNTYNNFCEDLKDANIFIGSLIFVEELAIKVKDAVEKERDRMDAVLVFPSMPEVMRLNKLGSFSMSQLGQSKSPFFQLFKRKKQGSAGFADSMLKLVRTLPKVLKYLPSDKAQDARLYILSLQFWLGGSPDNLQNFVKMISGSYVPALKGVKIEYSDPVLFLDTGIWHPLAPTMYDDVKEYWNWYDTRRDTNDSLKRKDATVVGLVLQRSHIVTGDDSHYVAVIMELEARGAKVVPIFAGGLDFSGPVEKYFVDPVSKQPIVNSAVSLTGFALVGGPARQDHPRAIEALKKLDVPYLVAVPLVFQTTEEWLNSTLGLHPIQVALQVALPELDGAMEPIVFAGRDPRTGKSHALHKRVEQLCIRAIRWGELKRKTKAEKKLAITVFSFPPDKGNVGTAAYLNVFASIFSVLRDLKRDGYNVEGLPENAETLIEEIIHDKEAQFSSPNLNVAYKMGVREYQDLTPYANALEENWGKPPGNLNSDGENLLVYGKAYGNVFIGVQPTFGYEGDPMRLLFSKSASPHHGFAAYYSYVEKIFKADAVLHFGTHGSLEFMPGKQVGMSDACFPDSLIGNIPNVYYYAANNPSEATIAKRRSYANTISYLTPPAENAGLYKGLKQLSELISSYQSLKDTGRGPQIVSSIISTAKQCNLDKDVDLPDEGLELSPKDRDSVVGKVYSKIMEIESRLLPCGLHVIGEPPSAMEAVATLVNIAALDRPEDEISALPSILAECVGREIEDVYRGSDKGILSDVELLKEITDASRGAVSAFVEKTTNSKGQVVDVSDKLTSLLGFGINEPWVEYLSNTKFYRANRDKLRTVFGFLGECLKLVVMDNELGSLMQALEGKYVEPGPGGDPIRNPKVLPTGKNIHALDPQAIPTTAAMASAKIVVERLVERQKLENEGKYPETIALVLWGTDNIKTYGESLGQVLWMIGVRPIADTFGRVNRVEPVSLEELGRPRIDVVVNCSGVFRDLFINQMNLLDRAIKMVAELDEPVEQNFVRKHALEQAEALGIDIREAATRVFSNASGSYSANISLAVENSSWNDEKQLQDMYLSRKSFAFDSDAPGAGMAEKKQVFEMALSTAEVTFQNLDSSEISLTDVSHYFDSDPTNLVQSLRKDKKKPSSYIADTTTANAQVRTLSETVRLDARTKLLNPKWYEGMMSSGYEGVREIEKRLSNTVGWSATSGQVDNWVYEEANSTFIQDEEMLNRLMNTNPNSFRKMLQTFLEANGRGYWDTSAENIEKLKELYSQVEDKIEGIDR
binding [1]: no binding
binding [2]: no binding

B5: GENOMES UNCOUPLED 4 (GUN4), split-YFP fusion for BiFC (protein, UniProt Q9LX31 70-265)
chain: ASATTAETATIFDVLENHLVNQNFRQADEETRRLLIQISGEAAVKRGYVFFSEVKTISPEDLQAIDNLWIKHSDGRFGYSVQRKIWLKVKKDFTRFFVKVEWMKLLDTEVVQYNYRAFPDEFKWELNDETPLGHLPLTNALRGTQLLKCVLSHPAFATADDNSGETEDELNRGVAVAKEQAGVGADKRVFKTNYSF
binding [1]: no binding
binding [2]: no binding

B6: MgProtoIX methyltransferase (CHLM), split-YFP fusion for BiFC (protein, UniProt Q9SW18 40-312)
chain: B1 chain
binding [1]: no binding
binding [2]: no binding

B7: Mg-chelatase catalytic subunit CHLH (GENOMES UNCOUPLED 5), Nub fusion for split-ubiquitin Y2H (protein, UniProt Q9FNB0 50-1381)
chain: B4 chain
binding [3]: no binding
binding [4]: no binding

B8: GENOMES UNCOUPLED 4 (GUN4), Nub fusion for split-ubiquitin Y2H (protein, UniProt Q9LX31 70-265)
chain: B5 chain
binding [3]: no binding
binding [4]: no binding
